Assay results published in patent US20230365705A1.
No constants are given. Whether binding was seen depends on the method and setting. Some results given as binding are weak or reduced against the parent protein; the word gives no strength.

Chains of the proteins cited; added tags and fusions are not shown. Lines headed by an entry give the natural chain unless they say otherwise; changes in a name come on top. Residues count along the entry.
UniProt Q9NPY3: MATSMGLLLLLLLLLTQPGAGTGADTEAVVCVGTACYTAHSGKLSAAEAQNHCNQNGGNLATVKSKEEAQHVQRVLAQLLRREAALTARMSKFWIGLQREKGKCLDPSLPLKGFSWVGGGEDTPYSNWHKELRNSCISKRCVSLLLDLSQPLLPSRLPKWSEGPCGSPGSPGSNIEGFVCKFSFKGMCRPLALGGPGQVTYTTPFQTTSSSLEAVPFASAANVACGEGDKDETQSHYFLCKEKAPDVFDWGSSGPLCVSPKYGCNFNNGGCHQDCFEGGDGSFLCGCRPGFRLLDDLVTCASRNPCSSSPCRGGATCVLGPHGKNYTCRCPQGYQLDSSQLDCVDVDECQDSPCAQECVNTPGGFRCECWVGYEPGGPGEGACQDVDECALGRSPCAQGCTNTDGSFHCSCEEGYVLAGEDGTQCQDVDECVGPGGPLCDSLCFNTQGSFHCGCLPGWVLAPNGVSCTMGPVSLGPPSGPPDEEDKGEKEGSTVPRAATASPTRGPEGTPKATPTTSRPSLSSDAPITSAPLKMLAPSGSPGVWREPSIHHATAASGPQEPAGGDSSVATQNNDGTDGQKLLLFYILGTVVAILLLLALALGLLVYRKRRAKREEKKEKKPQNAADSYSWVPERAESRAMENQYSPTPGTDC
Human CD93 on cells (human CD93 expressing CHO cells; HUVEC, U937 and KG1a cells): residues 22-652 of Q9NPY3
Human CD93 recombinant protein (Sino Biological Inc, Catalog #12589-H08H): residues 22-580 of Q9NPY3

Columns and labels:
[1] = target: cynomolgus CD93 protein (made in-house) (cynomolgus); test: summary table; method not given
[2] = target: cynomolgus CD93 protein (made in-house) (cynomolgus); test: summary table, column 'Cyno Cross (ELISA)'
[3] = target: cynomolgus CD93 protein (made in-house) (cynomolgus); test: BLI (Octet QKe), biotinylated CD93 on streptavidin sensors
[4] = target: Human CD93 on cells (human CD93 expressing CHO cells; HUVEC, U937 and KG1a cells) (human) (UniProt Q9NPY3); test: flow cytometry on KG1a cells
[5] = target: Human CD93 recombinant protein (Sino Biological Inc, Catalog #12589-H08H) (human) (UniProt Q9NPY3); test: BLI (Octet QKe), biotinylated human CD93 on streptavidin sensors
[6] = target: Human CD93 on cells (human CD93 expressing CHO cells; HUVEC, U937 and KG1a cells) (human) (UniProt Q9NPY3); test: flow cytometry on human CD93 expressing CHO cells; antibody stored 0, 2 or 4 weeks at 40 °C
[7] = target: Human CD93 on cells (human CD93 expressing CHO cells; HUVEC, U937 and KG1a cells) (human) (UniProt Q9NPY3); test: flow cytometry on HUVEC cells
[8] = target: Human CD93 on cells (human CD93 expressing CHO cells; HUVEC, U937 and KG1a cells) (human) (UniProt Q9NPY3); test: flow cytometry on human CD93 expressing CHO cells, 10 µg/ml
[9] = target: cynomolgus CD93 protein (made in-house) (cynomolgus); test: ELISA (legend of FIG. 53F)
[10] = target: Human CD93 recombinant protein (Sino Biological Inc, Catalog #12589-H08H) (human) (UniProt Q9NPY3); test: ELISA, antigen coated at 1 µg/mL
[11] = target: cynomolgus CD93 protein (made in-house) (cynomolgus); test: ELISA, antigen coated at 1 µg/mL
[12] = target: Human CD93 recombinant protein (Sino Biological Inc, Catalog #12589-H08H) (human) (UniProt Q9NPY3); test: ELISA (legend of FIG. 53E and 53F)
[13] = target: Human CD93 recombinant protein (Sino Biological Inc, Catalog #12589-H08H) (human) (UniProt Q9NPY3); test: ELISA, His-tagged human CD93 coated at 1 µg/mL
[14] = target: Human CD93 on cells (human CD93 expressing CHO cells; HUVEC, U937 and KG1a cells) (human) (UniProt Q9NPY3); test: flow cytometry on human CD93 expressing CHO cells (10 µg/ml by the text)

binding [2] | binding [3] | Binder | other results
binds | binds | 17B10 (hybridoma) (antibody, V domains shown) VH: QVQLQQSGPELVKPGASVKISCKASGYAFSSYWLNWVKQRPGKGLEWFGRIYPGDGDTDYNGKFKGKATLTADKSSSTAYMQLRSLTSEDSAVYFCVRGDGYWAMDYWGQGTSVTVSS VL: DIVMTQAAFSNPVTLGTSASISCRFSKSLLHSNGITYLYWYLQKPGQSPQLLIYQMSNLASGVPDRFSSSGSGTDFTLRISRVEAEDVGVYYCAQNLELPWTFGGGTKLEIK | binding [1]: binds
 |  | h16E4 (humanized 16E4, VH4+VL6) (antibody, V domains shown) VH: QVQLVQSGAEVKKPGASVKVSCKASGYTFTSYWMHWVRQAPGQGLEWMGEIDPSASYTYYNQKFKGRVTMTRDKSSSTVYMELSSLTSEDSAVYYCARSVYYGNKYFDVWGAGTTVTVSS VL: DIQMTQSPSTLSASVGDRVTITCKASQSVDYAGDSYMNWYQQKPGKAPKLLIYAASNLESGVPSRFSGSGSGTEFTLTISSLQPDDFATYYCQQTNEDPRTFGGGTKLEIK | binding [4]: binds; binding [5]: binds; binding [6]: binds
binds | binds | 16G9 (antibody, V domains shown) VH: EVQLQQSGPELVKPGASVKMSCKASGYTFTDYYMNWVKQSHGKSLEWIGRVNPNNGGKTYNQKFKGKATLTVDKSLSTAYMQLNSLTSEDSAVYYCARWRLRPVDYGMDYWGQGTSVTVSS VL: DIVLTQSPASLAVSLGQRATISCRASQSVSTSSYSYMHWYQQKPGQPPKLLIKYASNLESGVPARFSGSGSGTDFTLNIHPVEEEDTATYYCQHSWEIPFTFGSGTKLEIK | 
binds | binds | 19E12 (antibody, V domains shown) VH: QVQLQQSGAELVRPGASVKLSCKASGYTFTDYEMHWVRQTPVHGLEWIGGIDPETGGTAYNQKFKGKATLTADKSSSTAYMELRSLTSEDSAVYYCTRGAWFAYWGQGTLVTVSA VL: QAVVTQESALTTSPGETVTLTCRSSTGAVTTSNSANWVQEKPDHLFTGLIGGTNNRAPGVPARFSGSLIGDKAALTITGAQTEDEAIYFCALWYNNHFVFGGGTKLTVL | 
binds | binds | 16B6 (antibody, V domains shown) VH: QVQLQQSGPELVKPGASVKISCKASGYAFSRSWMNWVKQRPGKGLEWIGWIYPGDGDTNYNGKFKGKATLTADKSSSTAYMQLSSLTSEDSAAYFCARSATLPYWYFDVWGAGTTVTVSS VL: DIKMTQSPSSMYASLGERVTITCKASQDIKSYLSWYQQKPWKSPKTLIYYATNLADGVPSRFSGSGSGQDYSLTISSLGSDDTATYYCLQHVESPWTFGGGTKLEIK | 
binds | binds | 19B5 (antibody, V domains shown) VH: DVNLVESGGGLVKLGGSLKLSCAASGFTFSNYYMSWVRQSPEKRLEWVATISNNGDSTYYLDTVKGRFTISRDSAENTLYLQMSSLISEDTAVYYCTRVGTGFTYWGQGTLVTVSA VL: DIVLTQSPATLSVTPGDSVSLSCRASQSINNYLHWYQQRSHESPRLLIKFASQSISDIPSRFSGSGSGTDFTLSINSIETEDFGMYFCQQSNSWPLTFGAGTKLELK | 
 |  | h7F3 (humanized 7F3, VH3+VL3) (antibody, human IgG1, V domains shown) VH: QVQLVQSGAEVKKPGASVKVSCKASGYTFTDYEMHWVRQAPGQGLEWMGGIDPETGDTAYNQNFKGRVTMTTDTSTSTAYMELRSLTSDDTAVYYCTNYGNLYYYAMDYWGQGTSVTVSS VL: EIVLTQSPSSLSASVGDRVTITCRASSSVSSSYLHWYQQKPGKAPKLLIYSTSNLAFGVPSRFSGSGSGTSYTFTISSLQPEDIATYYCQQYSGYPLTFGSGTKLEIK | binding [4]: binds; binding [7]: binds; binding [8]: binds; binding [5]: binds; binding [6]: binds
binds | binds | 7F3 (hybridoma) (antibody, IgG1, V domains shown) VH: QVQLQQSGADLVRPGASVKLSCKASGYTFTDYEMHWVKQTPVYGLEWIGGIDPETGDTAYNQNFKGKATLTADKSSSAAYMELRSLTSEDSAVYYCTNYGNLYYYAMDYWGQGTSVTVSS VL: ENVLTQSPAIMSASPGEKVTMTCRASSSVSSSYLHWYQQKSGASPKLWIYSTSNLAFGVPARFSGSGSGTSYSLTISSVEAEDAATYYCQQYSGYPLTFGSGTKLEIK | binding [1]: binds
 |  | 7F3-hIgG1 (recombinant chimeric 7F3) (antibody, V domains shown) VH: QVQLQQSGADLVRPGASVKLSCKASGYTFTDYEMHWVKQTPVYGLEWIGGIDPETGDTAYNQNFKGKATLTADKSSSAAYMELRSLTSEDSAVYYCTNYGNLYYYAMDYWGQGTSVTVSS VL: ENVLTQSPAIMSASPGEKVTMTCRASSSVSSSYLHWYQQKSGASPKLWIYSTSNLAFGVPARFSGSGSGTSYSLTISSVEAEDAATYYCQQYSGYPLTFGSGTKLEIK | binding [9]: binds; binding [10]: binds; binding [11]: binds; binding [12]: binds; binding [13]: binds; binding [14]: binds
binds | binds | 17E6 (antibody, V domains shown) VH: EVQLQQSGPELVKPGASVKMSCKASGYTFTSYVIHWVKQKPGQGLEWIGYINPYSDYTQYNEKFKGKATLTSDKSSSTAYMELSSLTSEDSAVYSCARRADGNPYAMDYWGQGTSVTVSS VL: DIVMTQSHKFMSTSVGDRVSTTCKASQDVSTAVVWYQQKPGQSPKLLIYSASYRYTGVPDRFTGSGSGTDFTFTITSVQAEDLAVYYCQQHYSTPFTFGSGTKLEIK | 
binds | binds | 20C7 (antibody, V domains shown) VH: EVQLQQSGPELVNPGASVKMSCKASGYTFTAYVMHWVKQKPGQGLEWIGYIFPYNDGTEYNEKFKGKATLTSDKSSSTAYMELSSLTSEDSAVYYCARRTDGNPYTMDYWGQGTSVTVSS VL: DIVMTQSHKFMSTSVGDRVSITCKASQDVSTAVAWYQQKPGQSPKLLIHSASYRYTGVPDRFTGRGSGTDFTFTISSVQAEDLAVYYCQQHYSTPFTFGSGTKLEIK | 
binds | binds | 12H4 (antibody, V domains shown) VH: EVQLQQSGPELVKPGASVKVSCKASGYTFTDYYIHWVKQRPGQGLEWIGEIYPGSDDAYYNEKFKGKATLTADKSSSTAYMQLSSLTSEDSAVYFCTRETTATAYWGQGTLVTVSA VL: QIVLTQSPAIMSASPGEKVTITCSASSSVSLIYWFQQKPGTSPKLWIYSTSNLASGVPARFSGSGSGTSYSLTISRMEAEDAATYYCQQRSGYPPTFGGGTKLEIK | 
binds | binds | 5H9 (antibody, IgG2a, V domains shown) VH: QVQLQQSGPDLVKPGASVKISCKASGYAFSTYWMNWVKQRPGKGLEWIGRIFPGDGDANYNGKFKGKATLTADKSSSTAYMQLSSLTSEDSAVYFCTRTGAAYDFDPFPYWGQGTLVTVSA VL: DIVMTQAAFSNPVTLGTSASISCSSSKSLLHSNGVTYLYWYLQRPGQSPQLLIYRMSNLASGVPDRFSGSGSGTDFTLRISRVEAEDVGIYYCAQMLERPFTFGSGTKLEIK | 
binds | binds | 17A7 (antibody, V domains shown) VH: QVQLQQSGPELVKPGASVKISCKGSGYAFSTYWMNWVKQRPGKGLEWIGRIFPGDGDTDYDGKFKGKATLTADKSSNTAYMQLSSLTSEDSAVYFCARTGAAYEFDPFPYWGQGTLVTVSA VL: DIVMTQAAFSNPVTLGTSASISCSSTKSLLHSSGITYLYWYLQRPGQSPQLLIYRMSNLASGVPDRFSGSGSGTDFTLRISRVEAEDVGVYYCAQMLERPFTFGSGTKLEIK | 
